At least one structure is not confirmed: it was looked up by name or label, or the drawing left a doubt.
System: NPT
Assay type: biochemical, Clostridium perfringens ATCC 21510

SMILES: NC(=O)OP(=O)(O)O [carbamyl phosphate]
- action as phosphate donor: not observed

Source: patent US4330527A, “Wound treatment agent” (priority 1979, dated 1982)
